The results in this text go back to PMC7862700.

Protein sequences, listed by entry. Tags and fused reporters are not part of them. Lines headed by an entry give the natural chain unless they say otherwise; changes in a name come on top.
UniProt P32519: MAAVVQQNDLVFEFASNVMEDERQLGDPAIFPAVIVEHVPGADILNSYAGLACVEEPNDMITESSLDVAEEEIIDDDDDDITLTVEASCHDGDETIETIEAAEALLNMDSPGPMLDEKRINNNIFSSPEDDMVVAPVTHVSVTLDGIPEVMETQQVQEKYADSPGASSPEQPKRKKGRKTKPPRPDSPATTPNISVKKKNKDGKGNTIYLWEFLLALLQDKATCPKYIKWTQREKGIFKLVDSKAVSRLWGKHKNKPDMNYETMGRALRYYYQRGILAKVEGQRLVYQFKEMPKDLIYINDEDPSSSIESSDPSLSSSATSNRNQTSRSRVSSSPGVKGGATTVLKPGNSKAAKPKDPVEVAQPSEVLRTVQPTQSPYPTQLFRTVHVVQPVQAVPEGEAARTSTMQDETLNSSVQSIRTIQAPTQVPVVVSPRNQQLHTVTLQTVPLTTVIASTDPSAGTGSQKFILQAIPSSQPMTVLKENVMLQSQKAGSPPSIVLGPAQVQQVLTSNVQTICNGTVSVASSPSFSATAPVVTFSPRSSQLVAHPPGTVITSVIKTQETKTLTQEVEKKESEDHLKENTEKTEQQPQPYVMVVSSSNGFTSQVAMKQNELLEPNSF
UniProt P50549: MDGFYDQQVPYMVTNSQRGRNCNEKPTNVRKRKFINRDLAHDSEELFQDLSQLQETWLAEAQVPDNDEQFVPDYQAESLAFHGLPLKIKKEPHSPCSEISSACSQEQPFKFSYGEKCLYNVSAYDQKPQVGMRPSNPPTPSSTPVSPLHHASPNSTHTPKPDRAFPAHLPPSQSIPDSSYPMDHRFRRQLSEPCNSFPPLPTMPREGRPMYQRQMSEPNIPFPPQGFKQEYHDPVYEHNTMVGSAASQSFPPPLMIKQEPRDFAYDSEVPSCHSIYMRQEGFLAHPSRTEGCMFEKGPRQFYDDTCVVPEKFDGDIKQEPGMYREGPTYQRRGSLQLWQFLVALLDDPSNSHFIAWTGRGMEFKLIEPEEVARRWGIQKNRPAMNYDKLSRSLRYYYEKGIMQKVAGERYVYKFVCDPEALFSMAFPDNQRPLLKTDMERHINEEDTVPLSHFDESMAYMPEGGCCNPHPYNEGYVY

Holding throughout (assay): DAPPL (digital affinity profiling via proximity ligation, sequencing)
Settings in all cases: 10 mM Tris-HCl pH 7.5, 50 mM NaCl, 1 mM DTT, 4% glycerol, room temperature, 30 min; GST-TFs on glutathione beads, 16-mer random dsDNA library, 0.1% …; high values mean tight binding; double strand, one strand shown; scale: fold enrichment (6-mer frequency, TF over GST control)

The target of assay [1] is T1, ERG (UniProt P11308).
T1 sequence: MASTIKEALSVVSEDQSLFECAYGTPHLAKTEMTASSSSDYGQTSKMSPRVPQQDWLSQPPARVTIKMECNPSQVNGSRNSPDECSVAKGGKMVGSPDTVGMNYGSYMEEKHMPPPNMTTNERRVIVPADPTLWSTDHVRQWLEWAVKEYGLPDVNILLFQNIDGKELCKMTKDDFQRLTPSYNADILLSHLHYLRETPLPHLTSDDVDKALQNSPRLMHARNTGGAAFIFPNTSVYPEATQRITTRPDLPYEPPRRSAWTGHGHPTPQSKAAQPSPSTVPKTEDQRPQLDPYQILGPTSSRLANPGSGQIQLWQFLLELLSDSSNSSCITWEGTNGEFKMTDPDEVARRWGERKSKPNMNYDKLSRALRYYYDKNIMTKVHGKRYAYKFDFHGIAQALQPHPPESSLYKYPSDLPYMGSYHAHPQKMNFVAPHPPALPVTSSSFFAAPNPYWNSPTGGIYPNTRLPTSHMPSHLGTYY

Assay [2] concerns the target ELF1 (UniProt P32519).
The target in assay [3] is T2, ELK4 (UniProt P28324-2).
T2 sequence: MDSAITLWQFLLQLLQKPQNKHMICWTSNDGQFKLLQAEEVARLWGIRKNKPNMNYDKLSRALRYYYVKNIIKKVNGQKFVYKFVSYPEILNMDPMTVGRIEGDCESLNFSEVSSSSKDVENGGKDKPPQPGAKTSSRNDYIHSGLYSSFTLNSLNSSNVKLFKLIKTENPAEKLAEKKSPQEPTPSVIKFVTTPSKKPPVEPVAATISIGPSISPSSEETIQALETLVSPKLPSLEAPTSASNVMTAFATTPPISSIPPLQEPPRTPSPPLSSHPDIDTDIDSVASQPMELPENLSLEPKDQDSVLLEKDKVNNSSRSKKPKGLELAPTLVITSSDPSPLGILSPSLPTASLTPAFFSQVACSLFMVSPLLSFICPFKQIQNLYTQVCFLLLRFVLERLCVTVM

The target of assay [4] is T3, ETV4 (UniProt P43268).
T3 sequence: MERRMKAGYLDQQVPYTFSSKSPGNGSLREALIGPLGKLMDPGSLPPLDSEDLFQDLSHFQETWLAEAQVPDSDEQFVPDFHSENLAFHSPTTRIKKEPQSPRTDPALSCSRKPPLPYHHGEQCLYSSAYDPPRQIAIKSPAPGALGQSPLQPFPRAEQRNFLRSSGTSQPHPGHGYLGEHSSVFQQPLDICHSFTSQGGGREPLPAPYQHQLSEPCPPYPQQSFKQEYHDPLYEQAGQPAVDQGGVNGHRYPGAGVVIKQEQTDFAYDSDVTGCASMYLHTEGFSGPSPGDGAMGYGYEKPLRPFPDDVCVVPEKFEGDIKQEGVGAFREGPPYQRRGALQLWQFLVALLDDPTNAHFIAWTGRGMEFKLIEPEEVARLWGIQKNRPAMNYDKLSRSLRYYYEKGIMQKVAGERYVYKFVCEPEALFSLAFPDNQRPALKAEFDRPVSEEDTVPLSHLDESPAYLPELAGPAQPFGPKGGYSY

Assay [5] has as its target ETV1 (UniProt P50549).
Assay [6] concerns the target T4, ERF (UniProt P50548).
T4 sequence: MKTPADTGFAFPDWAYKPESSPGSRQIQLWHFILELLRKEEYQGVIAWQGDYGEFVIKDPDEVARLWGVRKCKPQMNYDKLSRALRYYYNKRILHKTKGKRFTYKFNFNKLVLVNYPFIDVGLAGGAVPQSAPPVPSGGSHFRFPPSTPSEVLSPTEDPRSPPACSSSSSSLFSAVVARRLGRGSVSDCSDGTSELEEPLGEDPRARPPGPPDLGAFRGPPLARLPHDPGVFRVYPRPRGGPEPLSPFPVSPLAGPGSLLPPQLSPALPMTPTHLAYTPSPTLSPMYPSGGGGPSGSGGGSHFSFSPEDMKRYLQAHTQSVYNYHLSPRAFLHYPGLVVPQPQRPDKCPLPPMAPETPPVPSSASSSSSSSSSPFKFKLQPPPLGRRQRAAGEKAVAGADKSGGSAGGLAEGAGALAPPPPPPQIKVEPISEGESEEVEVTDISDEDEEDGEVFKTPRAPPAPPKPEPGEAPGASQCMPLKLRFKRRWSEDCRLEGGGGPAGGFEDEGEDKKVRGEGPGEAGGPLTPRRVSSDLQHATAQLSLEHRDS

This is a selection; strong and weak results do not stand in their true shares. For part of these data: At the low end of the ranking, values are background and their order means little. This is one part of the list. For part of these data: Construct or isoform of the protein are uncertain.

For the sequence TACGAG, the binding signal in assay [1] turned out to be 0.893; in assay [2], 0.933; in assay [3] it was 0.9; in assay [4], 0.963; in assay [5] it was 0.852; in assay [6], 0.832.
As to AGCGAA, the binding signal in assay [1] amounted to 0.938; in assay [2] it was 0.918; in assay [3] it was 0.945; in assay [4], 0.901; in assay [5], 0.927; in assay [6] it was 0.939.
With ATTAGA, the binding signal in assay [1] was determined as 0.899; in assay [2], 0.939; in assay [3] it was 0.922; in assay [4], 0.883; in assay [5], 0.93; in assay [6] it was 0.929.
For GCCCGG, the binding signal in assay [1] came out at 0.957; in assay [2], 0.981; in assay [3] it was 0.87; in assay [4] it was 0.967; in assay [5], 0.99; in assay [6] it was 0.85.
For GCGAAG, the binding signal in assay [1] came to 0.926; in assay [2], 0.955; in assay [3], 0.989; in assay [4], 0.926; in assay [5], 0.994; in assay [6] it was 0.799.
For the sequence AAACAG, the binding signal was determined as 0.995 in assay [1]; 0.967 in assay [2]; 1.04 in assay [3]; 0.922 in assay [4]; 0.983 in assay [5]; 0.953 in assay [6].
As to AAGGTC, the binding signal came to 0.886 in assay [1]; 0.895 in assay [2]; 0.92 in assay [3]; 0.942 in assay [4]; 0.943 in assay [5]; 0.929 in assay [6].
On to ATCGCG, for which the binding signal turned out to be 0.931 in assay [1]; 0.976 in assay [2]; 1 in assay [3]; 0.892 in assay [4]; 0.987 in assay [5]; 0.885 in assay [6].
With TGGATT, the binding signal in assay [1] was determined as 1.05; in assay [2], 0.965; in assay [3], 1.11; in assay [4] it was 1.01; in assay [5], 0.917; in assay [6] it was 0.983.
Take GAAAGT: the binding signal was found to be 0.812 in assay [1]; 0.841 in assay [2]; 0.901 in assay [3]; 0.852 in assay [4]; 0.809 in assay [5]; 0.88 in assay [6].
Regarding GTGTAC, the binding signal in assay [1] was 0.924; in assay [2], 0.902; in assay [3], 0.885; in assay [4], 1.02; in assay [5], 0.964; in assay [6] it was 0.993.
Turning to TAAGAG, the binding signal in assay [1] was 0.941; in assay [2], 0.912; in assay [3], 0.871; in assay [4] it was 0.869; in assay [5], 0.9; in assay [6], 0.951.
With TGAAGG, the binding signal was found to be 0.958 in assay [1]; 0.944 in assay [2]; 0.958 in assay [3]; 0.882 in assay [4]; 0.929 in assay [5]; 0.917 in assay [6].
Regarding GACCGA, the binding signal in assay [1] was 0.839; in assay [2], 0.898; in assay [3], 0.844; in assay [4], 0.874; in assay [5] it was 0.853; in assay [6], 0.814.
For AGATTA, the binding signal came out at 0.958 in assay [1]; 0.986 in assay [2]; 1.05 in assay [3]; 0.989 in assay [4]; 0.994 in assay [5]; 0.999 in assay [6].
Take GAATGC: the binding signal in assay [1] is 0.937; in assay [2], 0.995; in assay [3] it was 0.91; in assay [4], 0.963; in assay [5] it was 0.917; in assay [6], 1.04.
For GCCGTC, the binding signal in assay [1] was 0.98; in assay [2], 1.02; in assay [3], 1.1; in assay [4] it was 0.921; in assay [5] it was 0.913; in assay [6], 0.872.
